# Data: PubChem BioAssay AID1487 (National Center for Advancing Translational Sciences (NCATS), 2009)
# The list shows a part of the results. These are further read-outs of the screen, such as a control signal, another cell line or another target. No call is given for them. Compounds called inactive in the main read-out are mostly missing here. Words in brackets tell the shape of the fitted curve; partial curves, single points and poor fits give uncertain potencies.
# Assay: qHTS Assay for Modulators of Lamin A Splicing
# Settings: HeLa LMNA splicing GFP/RFP minigene ratio, 48 h
# Method in brief: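 Read-out is the ratio of GFP to DsRed2 object intensity, acquired by 488 nm laser-scanning cytometry on HeLa lamin A-EGFP minigene reporter cells. Compound incubation 48 hrs at 37 °C in Opti-MEM with 2% FBS; DMSO 0.5% final.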
# [1] = measured here: GFP splicing reporter channel
# [2] = measured here: RFP viability control channel
SMILES,AC50 [1],AC50 [2]
CC(C)c1ccc(NC(=O)c2ccc(F)c(S(=O)(=O)N3CCN(c4ccccc4F)CC3)c2)cc1,"0.0282 µM [falling, full curve, poor fit]",
COc1cc2c(cc1OC)CN(C(=S)NC(=O)c1ccccc1)CC2,"0.447 µM [falling, full curve]","0.1 µM [falling, full curve]"
COc1ccccc1N1CCN(C(=O)CSc2nnc3n2C(C)(C)Cc2ccccc2-3)CC1,,"2.82 µM [rising, full curve]"
COc1ccc([N+](=O)[O-])cc1NC(=O)CSCc1ccc(Br)cc1,"31.6 µM [rising, single point]",
Cc1ccc2nc(NC(=O)c3ccc(OCC4CCCO4)cc3)sc2c1 (stereo not given),"11.2 µM [rising, partial curve]","11.2 µM [rising, partial curve]"
COc1cc(/C=C2/C(=O)NN(c3cccc(C)c3)C2=O)cc([N+](=O)[O-])c1O,,"0.0316 µM [falling, full curve, poor fit]"
CCCN(Cc1ccccc1)C(=S)Nc1ccc(OC(F)F)cc1,,"35.5 µM [rising, single point]"
COC(=O)c1sccc1S(=O)(=O)N1CCN(c2ccc(C(C)=O)cc2)CC1,"0.0355 µM [falling, full curve, poor fit]","1.58 µM [falling, full curve, poor fit]"
Cc1cc(F)ccc1NC(=O)c1ccc(NS(=O)(=O)c2cc(C(C)(C)C)ccc2C)cc1,,"31.6 µM [rising, single point]"
C[C@](N)(Cc1ccc(O)c(O)c1)C(=O)O,"0.00224 µM [falling, partial curve, poor fit]",
O=C(Nc1ccc(NC(=S)NC(=O)c2ccccc2F)cc1)c1cccs1,"22.4 µM [falling, single point]",
Cc1ccc(Cl)cc1N1CCN(S(=O)(=O)c2ccc(-c3cnc(C4CC4)o3)cc2)CC1,,"25.1 µM [rising, single point]"
Clc1ccc(OCc2cn3ccccc3n2)c2ncccc12,,"0.0891 µM [falling, full curve, poor fit]"
Cc1sc2nc(CSc3nnnn3-c3ccc(Cl)cc3)[nH]c(=O)c2c1C,,"35.5 µM [rising, single point]"
CN(CCC#N)C(=O)COC(=O)c1c2c(nc3ccccc13)/C(=C/c1ccco1)CC2,,"12.6 µM [rising, single point]"
Cc1ccc(SCCC(=O)Nc2ccc(Br)c(C)c2)cc1,"20 µM [rising, single point]","14.1 µM [rising, partial curve]"

# A different layout for some results above:
SMILES	AC50 [1]	AC50 [2]
COC(=O)c1sccc1S(=O)(=O)N1CCN(c2ccc(C(C)=O)cc2)CC1	0.0355 µM [falling, full curve, poor fit]	1.58 µM [falling, full curve, poor fit]
Cc1cc(F)ccc1NC(=O)c1ccc(NS(=O)(=O)c2cc(C(C)(C)C)ccc2C)cc1		31.6 µM [rising, single point]
